{"source": "PubChem BioAssay AID1745850", "about": "(National Center for Advancing Translational Sciences (NCATS), 2022)", "note": "The whole screen tested about 2,100 compounds, of which about 260 (12%) were called active. This list was built around the results that the source calls inconclusive (neither active nor inactive); the mix of calls is not that of the screen. Calls follow the shape of the dose curve; as a rule, active = well fitted cell-killing curve with a large enough effect; inconclusive = small, poorly fitted or top-dose-only effect, or effect the other way; inactive = flat fitted curve, though single readings scatter. Potencies beside an inconclusive call are fits to weak or partial responses and may not hold up. Potency is read from the fitted curve at half-maximal effect.", "data": [{"experiment": "Viability Counterscreen for Confirmatory qHTS for Inhibitors of ATXN expression; also: nearly all actives have a fitted effect of over 50% in size", "settings": "HEK-293 ATXN2-luc cells viability, CellTiter-Fluor, 24 h; activity change, negative = cytotoxicity: at 11.5 µM (top of the series) unless noted", "summary_of_the_method": "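Luminescence read-out (SteadyGlo, 5 min) followed a 30 min Gly-Phe-AFC (25 uM final) viability fluorescence read. ATXN2-luciferase reporter cells were exposed 24 h to a dilution series. Medium-only wells served as the 100% inhibition reference.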", "values": [{"smiles": "COCCCNCCCOc1ccc(Cl)cc1C(C)(C)C", "Potency": "active: 35.5 µM"}, {"smiles": "Cc1nc(N2CCN(c3ccccn3)CC2)c2c(C)c(C(=O)N3CCN(c4ccc(F)cc4)CC3)sc2n1", "Potency": "inconclusive: 22.4 µM [cytotoxic, single point]"}, {"smiles": "O=C(COc1nsnc1N1CCOCC1)N/N=C/c1ccccc1O", "Potency": "inconclusive: 25.1 µM [cytotoxic, single point]"}, {"smiles": "O=C(NN=C(c1ccccc1)c1ccccn1)c1ccccc1", "Potency": "inconclusive: 8.91 µM [cytotoxic, full curve]"}, {"smiles": "Cc1nc2ccccc2c2oc(C(=O)Nc3ccc(C(C)C)cc3)cc12", "Potency": "inconclusive: 31.6 µM [cytotoxic, single point]"}, {"smiles": "O=S(=O)(Cc1cc(NCc2ccccc2)nc(-c2ccccn2)n1)c1ccccc1", "Potency": "inconclusive: 39.8 µM [cytotoxic, single point]"}, {"smiles": "CCCc1cc(C(=O)Nc2ccc(C(=O)c3ccc(C)cc3)cc2)n(C)n1", "activity change, negative = cytotoxicity": "inactive: -29%"}, {"smiles": "O=C(Nc1ccc(Br)c(C(F)(F)F)c1)c1ccc(C(F)(F)F)cc1", "Potency": "inconclusive: 3.16 µM [cytotoxic, single point]"}, {"smiles": "O=C(Nc1ccc(OC(F)(F)F)cc1)N1CCN(c2ccnc3cc(Cl)ccc23)CC1", "Potency": "inconclusive: 35.5 µM [cytotoxic, single point]"}, {"smiles": "CN(C)c1ccc(CNCCC(Cc2ccccc2)c2ccco2)cc1", "note": "(centres undefined)", "Potency": "inconclusive: 39.8 µM [cytotoxic, single point]"}, {"smiles": "CS(=O)(=O)N1CCC(Oc2cccc(C(=O)NCCCC3CCCC3)c2)CC1", "Potency": "inconclusive: 28.2 µM [cytotoxic, partial curve]"}, {"smiles": "COc1cc(C(=O)Oc2cccc(Nc3ncnc4ccccc34)c2)cc(OC)c1OC", "Potency": "inconclusive: 6.31 µM [cytotoxic, single point]"}, {"smiles": "CC1(C)Cc2ccccc2C2=NNC(=O)C2=N1", "Potency": "active: 28.2 µM"}, {"smiles": "CC1(C)C(C=C(Cl)Cl)C1C(=O)Nc1ccc([N+](=O)[O-])cc1", "note": "(centres undefined)", "Potency": "inconclusive: 39.8 µM [cytotoxic, single point]"}, {"smiles": "COC(=O)c1ccccc1S(=O)(=O)NNC(=O)Nc1ccccc1", "activity change, negative = cytotoxicity": "inactive: 3.46%"}, {"smiles": "COC(=O)c1c(NC(=O)/C=C/C(=O)O)sc(C)c1-c1ccc(C(C)C)cc1", "Potency": "active: 28.2 µM"}, {"smiles": "O=C(CCN1C(=O)C2CC=CCC2C1=O)Nc1nc(-c2ccc(F)c(F)c2)cs1", "note": "(centres undefined)", "activity change, negative = cytotoxicity": "inactive: -16.4% [at 57.5 µM]"}, {"smiles": "CC(=O)c1sc(NC(=O)C2(F)C(F)(F)C(F)(F)C(F)(F)C(F)(F)C2(F)F)nc1C", "Potency": "inconclusive: 1.58 µM [cytotoxic, partial curve]"}, {"smiles": "Cc1ccc2nc(NC(=O)CSCC(=O)OCC(=O)c3ccc(Br)cc3)sc2c1", "activity change, negative = cytotoxicity": "inactive: -7.59% [at 57.5 µM]"}, {"smiles": "COC(=O)c1cc(Cl)ccc1NCC(N)c1ccccc1", "note": "(centres undefined)", "Potency": "inconclusive: 39.8 µM [cytotoxic, single point]"}, {"smiles": "CCCCn1c(SCC(=O)Nc2cc(C(F)(F)F)cc(C(F)(F)F)c2)nnc1C(CC)N(C)C", "note": "(centres undefined)", "activity change, negative = cytotoxicity": "inactive: -21.7%"}, {"smiles": "C[C@@H]1CN([C@@H](C)CO)S(=O)(=O)c2ccc(C#CC3CCCCC3)cc2O[C@@H]1CN(C)Cc1cccnc1", "Potency": "inconclusive: 39.8 µM [cytotoxic, single point]"}, {"smiles": "CCN1CC2=C(OC(N)=C(C#N)C2c2cccs2)/C(=C\\c2cccs2)C1", "note": "(centres undefined)", "activity change, negative = cytotoxicity": "inactive: -21.6%"}, {"smiles": "CCC(C)(C)c1ccc(Oc2ccc(N)cc2)cc1", "activity change, negative = cytotoxicity": "inactive: -9.83% [at 57.5 µM]"}, {"smiles": "Cc1cc(Br)ccc1NC(=O)c1cnc(N2CCN(c3ccccn3)CC2)c2ccccc12", "activity change, negative = cytotoxicity": "inactive: -16.2%"}, {"smiles": "Cc1cc(OCc2nc(N)nc(N)c2-c2ccc(Cl)c(Cl)c2)ccc1[N+](=O)[O-]", "activity change, negative = cytotoxicity": "inactive: -12.4%"}, {"smiles": "Cn1c2c(c(=O)[nH]c1=O)C(c1cccc(O)c1)C1=C(N2)c2ccccc2C1=O", "note": "(centres undefined)", "Potency": "active: 22.4 µM"}, {"smiles": "COc1cccc(/C=N/NC(=O)CSc2ccccc2C)c1O", "Potency": "inconclusive: 12.6 µM [cytotoxic, partial curve]"}, {"smiles": "COc1ccc(-c2csc(NC(=O)C3CCN(c4ncnc5sc(C)c(C)c45)CC3)n2)cc1OC", "Potency": "inconclusive: 8.91 µM [cytotoxic, partial curve]"}, {"smiles": "CC(=O)Nc1ccc(C(=O)N/N=C/c2cc(Br)cc(Br)c2O)cc1", "Potency": "inconclusive: 10 µM [cytotoxic, partial curve, poor fit]"}, {"smiles": "c1ccc(Nc2nc(N3CCCCC3)nc(N3CCNCC3)n2)cc1", "Potency": "inconclusive: 39.8 µM [cytotoxic, single point]"}, {"smiles": "COc1cccc(/C=C2/SC(=S)N(CCCC(=O)Nc3ccc(O)cc3)C2=O)c1", "Potency": "inconclusive: 3.16 µM [cytotoxic, single point]"}, {"smiles": "COc1ccc(/C=C/C(O)=C2/C(=O)N(C)C3(C)CC2c2ccccc2O3)cc1", "note": "(centres undefined)", "Potency": "inconclusive: 39.8 µM [cytotoxic, single point]"}, {"smiles": "COc1cc(Br)cc(/C=N/NC(=O)Cc2ccccc2)c1O", "activity change, negative = cytotoxicity": "inactive: -0.334%"}, {"smiles": "O=C(O)COc1ccc2oc3ccccc3c2c1", "activity change, negative = cytotoxicity": "inactive: 7.02%"}, {"smiles": "CCN1c2ccccc2NC2N=C(OC)C(c3ccccc3)C21", "note": "(centres undefined)", "Potency": "inconclusive: 25.1 µM [cytotoxic, single point]"}, {"smiles": "Cc1ccc(C(NC(=O)C2CCN(CCOc3ccc(Cl)cc3Cl)CC2)c2ccccn2)cc1", "note": "(centres undefined)", "Potency": "inconclusive: 28.2 µM [cytotoxic, single point]"}, {"smiles": "Cc1cccc(OCC(=O)Nc2ccc3c(c2)nc(CCN2CCN(c4ccccn4)CC2)n3C)c1", "Potency": "inconclusive: 39.8 µM [cytotoxic, single point]"}, {"smiles": "O=C(O)CSc1cc(NS(=O)(=O)c2ccc(Cl)cc2)c2ccccc2c1O", "Potency": "active: 35.5 µM"}, {"smiles": "CC(=O)Nc1sc2c(c1-c1nc3ccccc3s1)CN(C(C)C)CC2", "Potency": "inconclusive: 12.6 µM [cytotoxic, partial curve, poor fit]"}, {"smiles": "COC(=O)COc1ccc(-c2nccc(-c3ccccn3)n2)cc1", "activity change, negative = cytotoxicity": "inactive: 0.594%"}, {"smiles": "CC1(C)Cc2ccccc2C(NNC(=O)c2ccccn2)=N1", "Potency": "inconclusive: 28.2 µM [cytotoxic, partial curve, poor fit]"}, {"smiles": "O=C(Nc1cccc(Br)c1)c1ccc(Cl)c(S(=O)(=O)N2CCOCC2)c1", "Potency": "inconclusive: 3.16 µM [cytotoxic, single point]"}, {"smiles": "Cc1noc(C)c1CSCC(=O)Nc1nc(-c2ccc(F)c(F)c2)cs1", "Potency": "active: 28.2 µM"}, {"smiles": "Nc1nc(N)c2cc(Sc3ccc4ccccc4c3)ccc2n1", "Potency": "inconclusive: 39.8 µM [cytotoxic, single point]"}, {"smiles": "O=C(NNC(=O)c1csc(-c2cnccc2C(F)(F)F)n1)c1ccc(C(F)(F)F)cc1", "activity change, negative = cytotoxicity": "inactive: -18.1%"}, {"smiles": "Cc1nc(-c2ccc(F)cc2)c(CC(=O)N(C)CC(=O)Nc2ccc(Cl)c(C(F)(F)F)c2)s1", "Potency": "inconclusive: 35.5 µM [cytotoxic, single point]"}, {"smiles": "O=C(CCc1ccccc1)N/N=C/c1cc(Br)ccc1O", "activity change, negative = cytotoxicity": "inactive: -17.3%"}, {"smiles": "Cc1ccc(Nc2c(-c3ccccn3)nc3cccc(C)n23)cc1", "Potency": "active: 8.91 µM"}, {"smiles": "Cc1nc2ccccc2c(=O)n1/N=C/c1c(O)ccc2oc3c(c12)CCCC3", "Potency": "inconclusive: 39.8 µM [cytotoxic, single point]"}, {"smiles": "CC1(C)Cc2c(ccc3ccccc23)C2=C(C(=O)N3CCCC3)C(=O)C(=O)N21", "activity change, negative = cytotoxicity": "inactive: -14.3% [at 57.5 µM]"}, {"smiles": "Cc1[nH]n2c(=O)cc(C(C)(C)C)nc2c1-c1ccccc1", "Potency": "inconclusive: 11.2 µM [cytotoxic, partial curve, poor fit]"}, {"smiles": "O=C(COc1ccc(F)cc1)N/N=C/c1cccc2cccnc12", "activity change, negative = cytotoxicity": "inactive: -15.2%"}, {"smiles": "OCCNc1c2ccccc2nc2ccccc12", "Potency": "inconclusive: 31.6 µM [cytotoxic, partial curve]"}, {"smiles": "O=C(CSc1ccc2c(c1)OCCO2)Nc1ccc(Cl)cn1", "Potency": "inconclusive: 39.8 µM [cytotoxic, partial curve, poor fit]"}, {"smiles": "COc1ccc(Br)cc1C(=O)NC(=S)Nc1ccc(CN2CCOCC2)cc1", "Potency": "inconclusive: 39.8 µM [cytotoxic, single point]"}, {"smiles": "COc1ccc(N(C(=O)c2snc(C(N)=O)c2N)C(C(=O)NCc2ccc(F)cc2)c2ccc(O)cc2)cc1", "note": "(centres undefined)", "Potency": "inconclusive: 39.8 µM [cytotoxic, single point]"}, {"smiles": "Nc1ccn(C2OC(COP(=O)(O)O)C(O)C2O)c(=O)n1", "note": "(centres undefined)", "activity change, negative = cytotoxicity": "inactive: -26.7% [at 57.5 µM]"}, {"smiles": "CCC(C)Sc1cc(C(F)(F)F)c(C(=O)Nc2ccc(Cl)cc2)cn1", "note": "(centres undefined)", "activity change, negative = cytotoxicity": "inactive: -28.6%"}, {"smiles": "COc1ccc(NC(=O)CSc2n[nH]c(-c3ccccn3)n2)cc1", "Potency": "inconclusive: 31.6 µM [cytotoxic, single point]"}, {"smiles": "COc1cc(C#Cc2c(-c3cncn3C)n(C)c3ccc(-c4cnc(N5CCOCC5)nc4)cc23)cc(OC)c1", "activity change, negative = cytotoxicity": "inactive: 5.72%"}, {"smiles": "Cc1cc(C)n(-c2nc(NCCN(C)C)c3c4c(sc3n2)COC(C)(C)C4)n1", "Potency": "inconclusive: 5.01 µM [cytotoxic, single point]"}, {"smiles": "CC(=O)N1CCCc2cc(S(=O)(=O)N3CCCC(C(=O)N4CCN(c5cc(C)ccc5C)CC4)C3)ccc21", "note": "(centres undefined)", "Potency": "inconclusive: 3.55 µM [cytotoxic, single point]"}, {"smiles": "O=C(Nc1ccc(Cl)cc1)Nc1ccc(N2CCCC2)c(S(=O)(=O)Nc2ccccc2Cl)c1", "Potency": "inconclusive: 7.94 µM [cytotoxic, full curve]"}, {"smiles": "COc1ccccc1/C=C1\\SC(=S)N(CCC(=O)NC2=NCCS2)C1=O", "Potency": "inconclusive: 39.8 µM [cytotoxic, partial curve, poor fit]"}, {"smiles": "Cc1ccc(-n2c(-c3ccccc3)c[n+]3c2CCc2ccccc2-3)c(C)c1", "Potency": "inconclusive: 1.41 µM [cytotoxic, partial curve]"}, {"smiles": "O=C(/C=C/c1ccco1)Oc1cc(Br)cc(/C=N/NC(=O)c2ccccc2O)c1", "Potency": "inconclusive: 15.8 µM [cytotoxic, partial curve, poor fit]"}, {"smiles": "Cc1cccn2c(Nc3ccccc3)c(-c3ccccn3)nc12", "activity change, negative = cytotoxicity": "inactive: -19% [at 57.5 µM]"}, {"smiles": "Cc1ccc(SC2=C(Sc3ccc(C)cc3)C(=O)c3ccccc3C2=O)cc1", "activity change, negative = cytotoxicity": "inactive: -12.3% [at 57.5 µM]"}]}]}
